From publication PMC2649369 (The Journal of neuroscience : the official journal of the …, 2007)
Marks after values point to notes of the source that are not given here.

Columns and labels:
Type in all cases: cell-based, human
[1] = biological target: α1 65-4-F-Phe β2 GABAA receptor; assay: GABA concentration-response, voltage-clamp in oocytes, α1 65-4-F-Phe
[2] = biological target: α1β2 97-3,5-F2-Phe GABAA receptor; assay: GABA concentration-response, voltage-clamp in oocytes, β2 97-3,5-F2-Phe
[3] = biological target: α1β2 97-3,4,5-F3-Phe GABAA receptor; assay: GABA concentration-response, voltage-clamp in oocytes, β2 97-3,4,5-F3-Phe
[4] = biological target: α1β2 157-3,5-F2-Phe GABAA receptor; assay: GABA concentration-response, voltage-clamp in oocytes, β2 157-3,5-F2-Phe
[5] = biological target: α1β2 157-3,4,5-F3-Phe GABAA receptor; assay: GABA concentration-response, voltage-clamp in oocytes, β2 157-3,4,5-F3-Phe
[6] = biological target: α1β2 157-4-Me-Phe GABAA receptor; assay: GABA concentration-response, voltage-clamp in oocytes, β2 157-4-Me-Phe
[7] = biological target: α1β2 205-3,5-F2-Phe GABAA receptor; assay: GABA concentration-response, voltage-clamp in oocytes, β2 205-3,5-F2-Phe
[8] = biological target: α1β2 205-3,4,5-F3-Phe GABAA receptor; assay: GABA concentration-response, voltage-clamp in oocytes, β2 205-3,4,5-F3-Phe

EC50 [1]: 11 µM
LogEC50 ± SEM ([1]; log of molar EC50): −4.962 ± 0.06 ^a
EC50 ([2]; α1β2 97-3,5-F2-Phe): 420 µM
LogEC50 ± SEM ([2]; α1β2 97-3,5-F2-Phe, log of molar EC50): −3.372 ± 0.05 ^a
additional increase in EC50 ([2]; β2 97-3,5-F2-Phe vs β2 97-4-F-Phe): 22 fold
EC50 ([3]; α1β2 97-3,4,5-F3-Phe): 9900 µM
LogEC50 ± SEM ([3]; α1β2 97-3,4,5-F3-Phe, log of molar EC50): −2.002 ± 0.04 ^a
final increase in EC50 ([3]; β2 97-3,4,5-F3-Phe vs β2 97-3,5-F2-Phe): 24 fold
EC50 [4]: 420 µM
LogEC50 ± SEM ([4]; log of molar EC50): −3.371 ± 0.04 ^a
EC50 [5]: 110 µM
LogEC50 ± SEM ([5]; log of molar EC50): −3.950 ± 0.08 ^a
EC50 [6]: 150 µM
LogEC50 ± SEM ([6]; log of molar EC50): −3.817 ± 0.15 ^a
EC50 [7]: 70 µM
LogEC50 ± SEM ([7]; log of molar EC50): −4.174 ± 0.06 ^a
EC50 [8]: 90 µM
LogEC50 ± SEM ([8]; log of molar EC50): −4.039 ± 0.05 ^a
SMILES: NCCCC(=O)O [GABA]
